Assay results from patent US20170137511A1.
Substitutions are numbered along the chain they refer to. No constants are given. Whether binding was seen depends on the method and setting. Some entries that bind do so weakly or less than the wild type.

T1: IL-15 peptide fragment stretch 61…72 (human)
T1 sequence (peptide): DTVENLIILANN

B1: huB-E29-10 (antibody, human IgG1, kappa, V domains shown)
VH: EVRLMASGGGLVQPGGSLRLSCAASEFTFSNYAMSWVRQAPGKGLEWVATISRGGDYTYYPDTVKGRFTISRDNSKNTLYLQMNSLRAEDTAVYYCARRVSMITGGYAMDYWGQGTLVTVSS
VL: DVVMTQSPLSLPVTLGQPASISCRSSQSIVDITGNTYLEWYQQRPGQSPRLLIYKVFNRFSGVPDRFSGSGSGTDFTLKISRVEAEDVGVYYCFQDSFVPYTFGQGTKLEIKR
B2: huB-E29-24 (antibody, human IgG1, kappa, V domains shown)
VH: B1 VH with R3Q, M5V, A6E, T63S
VL: B1 VL

Biological target: T1, IL-15 peptide fragment stretch 61…72 (human)
Test: CLIPS/PEPSCAN peptide array ELISA

| Binder | binding |
| --- | --- |
| B1 | binds |
| B2 | binds |
